These results are taken from paper PMC12040169 (PLOS Biology, 2025).

The list shows a part of the results.

The subject of this assay is T1, CTL2-GFP (C. trachomatis L2/434/Bu, GFP-expressing).
T1 construct: L2/434/Bu, GFP-expressing
More on the design: species or system HeLa; Intracellular C. trachomatis growth in HeLa cells, bulk GFP fluorescence relative to DMSO. The following applies: bulk GFP, single well; 28.5 h, 10 µM; inhibitor.
On to `CCOc1ccc(S(=O)(=O)N2CCN(Cc3cccc(F)c3C)CC2)c2cccnc12` [CBK062794], for which the “% of control remaining” value is listed as 129.788%.
For the molecule `CC(Oc1ccc(Cl)cc1Cl)C(=O)O/N=C(\N)c1ccccn1` (centres unmarked) [CBK264673], the “% of control remaining” value is 123.176%.
On to `Cc1cc(C)nc(N2CCC(CC(=O)N3CCN(C4CCCC4)CC3)CC2)n1` [CBK285957], for which the “% of control remaining” value is given as 125.177%.
In the case of `CCCN1CCN(Cc2cccc3c2ccn3S(=O)(=O)c2cccs2)CC1` [CBK116196T], the “% of control remaining” value is on record as 141.762%.
Then `Cn1c(=O)[nH]c(=O)c2c1nc(NC1CCCCC1)n2CCCc1ccccc1` [CBK269500], with 151.44%; and `Cn1nccc1CN1CCCC(COc2ccccc2F)C1` (centres unmarked) [CBK281663], with 114.051%.
For the molecule `COc1ccc(Cl)cc1NC(=O)CN(c1cccc(C(C)=O)c1)S(C)(=O)=O` [CBK267835], the “% of control remaining” value was 87.9053%.
Then `Cc1ccc(NC(=O)c2cnc3sccn3c2=O)cc1` [CBK287448], with 144.318%.
In the case of `O=C(Nc1ccon1)c1nn(-c2ncccn2)c2ccccc12` [CBK048513], the “% of control remaining” value is recorded as 181.271%.
As for `COc1ccc(Cn2c(=O)n(S(=O)(=O)c3ccc(C)cc3)c3ccccc32)cc1` [CBK106550], the “% of control remaining” value amounted to 106.191%.
Consider `C[C@H](NC(=O)Cn1cc(-c2ccc(CN3CCCC3)cc2)nn1)c1ccc(Br)cc1` [CBK167692], for which the “% of control remaining” value is 94.4685%.
As to `COc1ccc(OCCCN)c(C(=O)N2CCc3nc[nH]c(=O)c3C2)c1` [CBK307361], the “% of control remaining” value is listed as 127.483%.
As to `Cc1ccc(S(=O)(=O)CC(=O)N2CCCC3(CCN(C(=O)Cc4c[nH]c5ccccc45)C3)C2)cc1` (centres unmarked) [CBK131595], the “% of control remaining” value was 112.811%.
Regarding `COc1ccc(C2(NC(=O)Cn3ccnc3)CCCCC2)cc1` [CBK283661], the “% of control remaining” value stood at 129.374%.
In the case of `O=C(Nc1cccc2nsnc12)c1cc(Cl)ccc1NS(=O)(=O)c1cccc2nsnc12` [CBK261129], the “% of control remaining” value was 100%.
With `CC(=O)Nc1nnc(-c2ccc3c(c2)CCCC3)o1` [CBK287426], the “% of control remaining” value turned out to be 150.502%.
With `CC(C)CN1CCOC(CNC(=O)c2cc(O)nc3ccccc23)C1` (centres unmarked) [CBK297931], the “% of control remaining” value worked out at 146.281%.
On to `O=c1c2cccnc2nc(SCCO)n1CC1CCCO1` (centres unmarked) [CBK306113], for which the “% of control remaining” value was determined as 94.2895%.
With `Nc1ncc(-c2ccncc2)nc1NCCCN1CCOCC1` [CBK063631], the “% of control remaining” value amounted to 141.677%.
For the molecule `CC1CCc2noc(C3CCCN(C(=O)c4ccco4)C3)c2C1` (centres unmarked) [CBK282865], the “% of control remaining” value is on record as 100.687%.
Consider `CCN1CCOC(CNc2ncnc3c2CCC3)C1` (centres unmarked) [CBK304811], for which the “% of control remaining” value came out at 100.005%.
On to `Cc1cc(NC(=O)c2cc3ccccc3o2)nc2c1c(=O)oc1ccccc12` [CBK291256], for which the “% of control remaining” value was 135.471%.
With `O=C(CC1SC(NC2CCCCC2)=NC1=O)Nc1cc(Cl)ccc1Cl` (centres unmarked) [CBK059501], the “% of control remaining” value came out at 115.03%.
Consider `CCOC(=O)C1CCN(S(=O)(=O)c2ccccc2C#N)CC1` [CBK051111], for which the “% of control remaining” value is 130.376%.
For `CN1CCN(CCCNC(=O)N2CCN(Cc3ccccc3)CC2)CC1` [CBK155621], the “% of control remaining” value amounted to 100%.
As to `c1cnc2[nH]c(C3CCNCC3)c(CN3CCCCCC3)c2c1` [CBK285057], the “% of control remaining” value came to 135.633%.
With `CC1CN(Cc2cccc(CNc3nccnc3C#N)c2)CCO1` (centres unmarked) [CBK304736], the “% of control remaining” value is given as 130.069%.
As to `Cn1cccc1C(=O)N[C@H]1C[C@@H]2C(=O)N[C@H]3CCN(C(=O)C4CCCC4)[C@@H]3C(=O)N2C1` [CBK289272], the “% of control remaining” value is 109.271%.
Regarding `Cc1csc(C(Cc2ccsc2)NC(=O)CCc2ccno2)n1` (centres unmarked) [CBK285099], the “% of control remaining” value is given as 86.7305%.
For `O=C(Nc1ccc(C(F)(F)F)cc1)N1CCC(n2c(=O)[nH]c3ccccc32)CC1` [CBK149847], the “% of control remaining” value was found to be 89.9148%.
Turning to `Cn1c(=O)n(C)c2cc(-c3nc4ccccc4c(=O)[nH]3)ccc21` [CBK287887], the “% of control remaining” value came to 122.65%.
`CC(=O)N1CCC2(CCCC[C@H]3CN(CC(=O)N(C)C)CC[C@@H]3NC(=O)CNC2=O)CC1` [CBK292163]: the “% of control remaining” value came out at 94.4343%.
Consider `COC(C)CN(C)C(=O)c1nnn(-c2ccc3ncccc3c2)c1C` (centres unmarked) [CBK304484], for which the “% of control remaining” value is listed as 113.368%.
As for `Cc1nc(C(F)(F)F)ccc1COC(=O)N1CCOCC1` [CBK200122], the “% of control remaining” value turned out to be 104.518%.
As for `OCCOc1cccc2cccnc12` [CBK001784], the “% of control remaining” value was 116.473%.
With `O=C(NC1CCS(=O)(=O)C1)c1cnc2c(OC(F)(F)F)cccc2c1O` (centres unmarked) [CBK304323], the “% of control remaining” value is 127.138%.
With `CCOC(=O)N1CCC(NC(=O)N(Cc2cccnc2)Cc2ccc3c(c2)OCO3)CC1` [CBK158897], the “% of control remaining” value was 92.5283%.
As to `CN1CCc2c1nc1ccccc1c2NC(=O)CN1CCCCCC1` [CBK278298G], the “% of control remaining” value turned out to be 79.2595%.
As to `OCc1ccc(-c2nccnc2NCc2cccs2)cc1` [CBK088689], the “% of control remaining” value came to 134.754%.
Then `O=C(CN1CCN(C(c2ccccc2)c2ccccc2)CC1)CN1C(=O)c2ccccc2C1=O` [CBK261682], with 99.418%; and `CC1(C)CC2CC(C)(CN2Cc2c(O)ccc3cc(-c4nc(-c5ccc(Br)cc5)cs4)c(=O)oc23)C1` (centres unmarked) [CBK263831], with 100%; and `COc1ccc(-c2ncc(Oc3cccc(NC(C)=O)c3)nc2N)c(OC)c1` [CBK145087], with 95.3995%.
Turning to `CN(C)C(=O)C(C)(C)Oc1cc(C(F)(F)F)n(C)n1` [CBK056980], the “% of control remaining” value is recorded as 152.843%.
Take `CC(C)NC(=O)CN1CCN(Cc2nc(-c3cccc(Cl)c3)no2)CC1` [CBK304369]: the “% of control remaining” value is recorded as 139.171%.
With `Cc1ccc(C)c(NC(=O)CCc2c(C)[nH]c3ncnn3c2=O)c1` [CBK304646], the “% of control remaining” value is on record as 118.75%.
For the molecule `O=S(=O)(c1ccccc1)n1ccc2c(Br)cccc21` [CBK002084], the “% of control remaining” value came out at 80.7068%.
As to `O=C(Nc1cccnc1N1CCNCC1)c1cccnc1` [CBK029426T], the “% of control remaining” value stood at 103.688%.
Turning to `O=[N+]([O-])c1ccccc1N/C(=N/S(=O)(=O)c1ccccc1)c1ccccc1` [CBK262336], the “% of control remaining” value worked out at 105.634%.
For `Brc1ccc(-c2nc(CSc3nnnn3C3CCCCC3)no2)cc1` [CBK026913], the “% of control remaining” value came to 92.4793%.
Consider `COC[C@H]1CCCN1C(=O)CC[C@H]1CNC(=O)[C@@H]2[C@@H](CCN2C2CCCCC2)N1C` [CBK289039], for which the “% of control remaining” value turned out to be 138.079%.
